Key:
[1] = tested on: Staphylococcus aureus MU500; assay: Experiment 12: replication on antibiotic agar after pulsed 400 nm irradiation; assay type: cell-based; settings: antibiotic 10 mg/l; 400 nm LED pulses 0.02 ms, 1 kHz, 10 minutes; 24 hours incubation
Procedure: (§1) 15′000′000 multi-resistant bacteriae (0.050 ml of a McFarland of 1) were put on 40 mm diameter petri dishes. The petri dishes comprised MH agar with or without antibiotic.
[…]. The LED power during 0.02 ms was measured to be 0.63 W on a Thorlabs power sensor with a surface area of 2.2×2.2 mm representing a power of 13 mW/cm^2.

[2] = tested on: Staphylococcus aureus MU500; assay type: cell-based; settings: remaining bacteria of experiment 12 proliferated and treated again
Procedure: as §1
The LED power during 0.02 ms was measured to be 0.63 W on a Thorlabs power sensor with a surface area of 2.2×2.2 mm representing a power of 13 mW/cm^2.
After the irradiation treatment according to experiment 12, remaining bacteria were allowed to proliferate and then were subject to the treatment according to experiment 12 again in order to test for possible new resistances to the treatment. The values in the following table are designated as in experiment 12: […]

O=C(O)c1cn(C2CC2)c2cc(N3CCNCC3)c(F)cc2c1=O [Ciprofloxacin]
F: Staphylococcus aureus MU500 (irradiation), replication [1]: NR (No replication) | F: Staphylococcus aureus MU500 (irradiation), replication, second treatment [2]: NR (No replication)

— US20160120979A1, “METHOD OF APPLYING A COMPOSITION AND PHARMACEUTICAL COMPOSITION WITH A REGIMEN OF ADMINISTERING IT” (priority 2013, published 2016)
